Measurements: PubChem BioAssay AID2685 (National Center for Advancing Translational Sciences (NCATS), 2010)
The other results are listed elsewhere or left out. Shown are side measurements of this screen, not its main read-out; they come without a call. Most of these compounds were active or inconclusive in the main read-out, so they are no random draw. Words in brackets tell the shape of the fitted curve; partial curves, single points and poor fits give uncertain potencies.

Assay: qHTS Assay for Lipid Storage Modulators in Drosophila S3 Cells;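 on cell number change: cells counted by Cell Tracker Red CMTPX staining in the red channel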
Conditions: BODIPY lipid droplet fluorescence, 18-24 h; for cell number change: measured here: cell count max response, cells fed with added oleic acid
In short: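 Drosophila S3 cells got compounds at several concentrations plus oleic acid (400 uM solution). Laser-scanning cytometry with 488 nm excitation read lipid droplets at 500-530 nm and cells at 575-640 nm. Percent activity was relative to 20 uM Triacsin C.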

[1] = measured here: lipid fluorescence (Fed channel) AC50, cells fed with added oleic acid
[2] = measured here: cell number channel AC50, cells fed with added oleic acid

Row | Structure (SMILES) | cell number change [%] | AC50 [1] | AC50 [2]
1 | C/C(=N\NC(=O)c1csc2ccccc12)c1ccc(O)cc1 | 18 | 29.1 µM [rising, single point] | –
2 | Cc1nnc(SCC(=O)c2c[nH]c3ccccc23)n1C1CC1 | -31.2 | 23.1 µM [falling, single point] | 20.6 µM [falling, single point]
3 | CCOc1cc(CNC2CCCC2)cc(Cl)c1OCc1ccc(F)cc1 | -92.4 | 0.291 µM [falling, partial curve, poor fit] | 29.1 µM [falling, single point]
4 | Cc1ccc(C2=NS(=O)(=O)N(C)C(C(=O)NC3CCCCC3)=C2)cc1 | 12.4 | – | –
5 | O=C(O)CCCC(=O)Nc1ccccc1C(=O)O | -6.19 | 3.66 µM [falling, full curve] | –
6 | O=C(COc1ccc(Br)cc1)Nc1cc(S(=O)(=O)N2CCCCC2)ccc1N1CCCCC1 | 3.42 | 0.259 µM [rising, full curve] | –
7 | O=C(CNS(=O)(=O)c1ccccc1)N/N=C/c1ccncc1 | 0.919 | – | –
8 | COc1ccc2cc3cc(C(=O)N4CC(C)CC(C)C4)oc3nc2c1 (stereo not given) | 28.3 | 20.6 µM [rising, partial curve] | 0.0517 µM [rising, full curve, poor fit]
9 | CN(C)c1nc(N(C)C)nc(N2CC(=O)N(c3ccccc3)C2=N)n1 | -11.4 | – | –
10 | CCc1cc2c(NCc3ccccc3)nc(C)nc2s1 | 3.72 | 3.26 µM [falling, single point] | –
11 | COC(=O)c1ccc(/C=N/NS(=O)(=O)c2cc(C)ccc2C)cc1 | 58.4 | 0.461 µM [falling, single point] | 18.4 µM [rising, single point]
12 | COc1ccccc1/C=C/C=N/N1CCN(Cc2ccc(Cl)cc2)CC1 | -5.79 | – | –
13 | CCC(=O)Nc1ccc(S(=O)(=O)Nc2c(NC)c3ccccc3oc2=O)cc1 | – | 7.31 µM [falling, partial curve] | –
14 | Cc1cc(C(=O)Cn2nnc3ccccc3c2=O)c(C)n1-c1ccccc1F | – | 0.517 µM [rising, full curve] | 0.326 µM [rising, full curve, poor fit]
15 | C=CCn1c(O)c(N=NC(=O)CNC(=O)c2ccco2)c2ccccc21 | 35.5 | 1.64 µM [rising, partial curve] | 1.46 µM [rising, partial curve]
16 | CCn1c(CNC(C)=O)nnc1SCC(=O)c1ccc(Br)cc1 | -43 | 10.3 µM [falling, partial curve] | 18.4 µM [falling, partial curve, poor fit]
17 | Cc1ccc(N=CNc2ccc(C)cc2C)c(C)c1 | 14.8 | 5.17 µM [rising, single point] | –
18 | COc1ccc(Cn2c(CCC(=O)Nc3ccc(C)cc3)nc3cccnc32)cc1 | -33 | 0.461 µM [rising, partial curve] | 0.164 µM [rising, partial curve]
19 | COc1ccc2c3c(cccc13)OC2=O | 3.78 | – | –
20 | O=C(O)CCCCCN1C(=O)C(O)=C(C(=O)/C=C/c2ccccc2)C1c1ccc2c(c1)OCO2 (stereo not given) | -27.1 | – | 2.31 µM [falling, full curve, poor fit]

One compound at a time, as listed above. Values in the order: cell number change [%]	AC50 [1]	AC50 [2]
`CN(C)c1nc(N(C)C)nc(N2CC(=O)N(c3ccccc3)C2=N)n1` is listed with -11.4	–	–
`Cc1cc(C(=O)Cn2nnc3ccccc3c2=O)c(C)n1-c1ccccc1F` is listed with –	0.517 µM [rising, full curve]	0.326 µM [rising, full curve, poor fit]

Next results

Row | Structure (SMILES) | cell number change [%] | AC50 [1] | AC50 [2]
21 | COC(=O)c1ccc2c(=O)[nH]c(CCl)nc2c1 | -40.5 | – | 29.1 µM [falling, single point]
22 | O=C(O)C(c1ccccc1)N1C(=O)/C(=C\c2ccc(-c3cccc(Cl)c3)o2)SC1=S (stereo not given) | -19.9 | 0.58 µM [falling, full curve, poor fit] | –
23 | CCN1C(=O)[C@H]2[C@@H](c3ccc(C)cc3)N3C(=O)N(c4ccc(OC)cc4)C(=O)[C@@]3(CC)[C@H]2C1=O | -24.9 | 0.00517 µM [falling, full curve, poor fit] | –
24 | Cc1cc(OCCNCCO)cc(C)c1Cl | 15.8 | 29.1 µM [rising, single point] | –
25 | O=C(O)c1ccc(CSc2nc3ccc(N4C(=O)C5C6C=CC(C6)C5C4=O)cc3s2)cc1 (stereo not given) | – | 23.1 µM [falling, single point] | –
26 | Fc1ccc(CNc2ncccn2)cc1 | -17.5 | 8.2 µM [falling, partial curve] | 0.00517 µM [falling, full curve, poor fit]
27 | C=CCn1c(=N)c(C(=O)NCCCOC)cc2c(=O)n3cc(C)ccc3nc21 | -13.5 | – | –
28 | Cc1cccc(NC(=O)CN2CCN(C(=O)CNC(=O)Cc3cccc4ccccc34)CC2)c1C | 1.24 | 1.84 µM [falling, partial curve, poor fit] | –
29 | O=C(NCCN1C(=O)S/C(=C\c2ccc(Cl)cc2Cl)C1=O)C1=COCCO1 | – | 18.4 µM [falling, single point] | –
30 | C=CCN1C(=O)C(Cc2ccc(OCC)cc2)SC1=Nc1ccc(C(=O)O)cc1 (stereo not given) | 15.1 | 1.16 µM [falling, single point] | 0.82 µM [falling, full curve]
31 | CN1CCN(CC(O)COc2ccc(C(=O)O)cc2)CC1 (stereo not given) | – | 6.51 µM [rising, single point] | 0.731 µM [rising, full curve, poor fit]
32 | COC(=O)C(NC(C)=O)(Nc1ccc(C)cn1)C(F)(F)F (stereo not given) | -2.91 | 0.461 µM [falling, full curve] | 0.517 µM [falling, full curve]
33 | COC(=O)c1ccc(CN2C(=O)C(C)N(C(=O)c3c(F)cccc3F)c3ccccc32)cc1 (stereo not given) | – | 29.1 µM [rising, single point] | –
34 | CCc1ccc(OCCCC(=O)NCc2ccco2)cc1 | 1.37 | 1.64 µM [rising, single point] | –
35 | Cc1cccc(N=C2NC(=O)/C(=C/c3cccnc3)S2)c1 | 28 | 0.651 µM [falling, single point] | –
36 | CN(CC(CC(=O)Nc1nncs1)c1ccccc1)S(=O)(=O)c1ccc(Br)cc1 (stereo not given) | 50.4 | – | 4.11 µM [rising, partial curve]
37 | Cc1ccc(S(=O)(=O)NNC(=O)c2ccc(O)cc2)cc1 | -9.31 | 1.3 µM [rising, full curve, poor fit] | 1.64 µM [rising, partial curve, poor fit]
38 | O=C(O)CCNC(=S)Nc1cccc(F)c1 | -36.1 | 0.651 µM [falling, full curve] | 0.82 µM [falling, full curve]
39 | Fc1cccc(Cl)c1CNn1cn[nH]c1=S | 1.5 | – | –
40 | CCOC(=O)CSc1nnc2c3ccccc3n(CC)c2n1 | 23 | 29.1 µM [falling, single point] | –

Row | Structure (SMILES) | cell number change [%] | AC50 [1] | AC50 [2]
41 | O=C(Nc1cccnc1)c1ccc(F)c(S(=O)(=O)N2CCOCC2)c1 | 4.05 | 2.91 µM [falling, single point] | –
42 | COc1ccc(N2CCN(Cc3cc(=O)c(OCC(=O)Nc4ccccc4)co3)CC2)cc1 | 2.55 | 0.411 µM [falling, single point] | –
43 | O=C(Nc1ccc2c(c1)OCCO2)C1CCN(S(=O)(=O)c2ccc(Br)s2)CC1 | 56.4 | 18.4 µM [rising, partial curve] | 16.4 µM [rising, single point]
44 | Cc1ccc(N(CC(=O)NC(C)C)C(=O)CCC(=O)Nc2nccs2)c(C)c1 | 6.61 | 13 µM [rising, partial curve, poor fit] | –
45 | Cc1ccc(O)c(C(=O)CC(=O)c2ccc(C(C)(C)C)cc2)c1 | -8.03 | 16.4 µM [falling, single point] | –
46 | CC(C(=O)N1CC2(C)CC1CC(C)(C)C2)N1C(=O)c2ccccc2C1=O (stereo not given) | -46.7 | 6.51 µM [falling, partial curve] | 7.31 µM [falling, partial curve]
47 | O=P(O)(O)c1ccccc1OCCOCCOc1ccccc1P(=O)(O)O | – | – | 6.51 µM [falling, single point]
48 | Cc1c(C)c2cc(Cl)c(OCC(=O)N3CCN(c4ccc(F)cc4)CC3)cc2oc1=O | – | 1.84 µM [rising, full curve] | –
49 | COc1ccc(/C=N/NC(=O)Nc2cccc3nsnc23)c(OC)c1 | – | 1.64 µM [rising, partial curve] | –
50 | CCS(=O)(=O)N1Cc2ccccc2CC1C(=O)N(C)CC(=O)Nc1ccc(OC)cc1 (stereo not given) | 26.4 | 2.59 µM [rising, partial curve] | –
51 | O=C(/C=C/c1ccco1)NC(=S)Nc1ccccc1Br | 6.82 | – | –
52 | CC(=O)Oc1ccc(N2C(=O)C3C4C=CC(C5CC45)C3C2=O)cc1[N+](=O)[O-] (stereo not given) | -3.62 | 0.00461 µM [falling, full curve, poor fit] | –
53 | Cc1cc(C)nc(-n2ncc3c2CC(c2cccc(Cl)c2)CC3=O)n1 (stereo not given) | – | 0.366 µM [rising, full curve] | 0.82 µM [rising, full curve]
54 | CCCN(CCC)CC(O)COc1ccc2c(c1)OCO2 (stereo not given) | 11.8 | – | 0.411 µM [falling, single point]
55 | Cc1ccc(NC(=S)N=Nc2c(O)n(C)c3ccc(S(=O)(=O)N4CCOCC4)cc23)cc1 | -12.6 | 6.51 µM [falling, partial curve] | –
56 | CC(=O)C1=C(NC(=O)c2ccc(F)cc2)CC2C1C2(C)C (stereo not given) | -19.6 | 0.259 µM [falling, full curve] | –
57 | COc1cc2[nH]c(-c3cccc(F)c3)cc(=O)c2cc1OC | -19.8 | 0.00461 µM [falling, full curve, poor fit] | –
58 | Cc1cc(NC(=O)c2ccc(Cn3cc([N+](=O)[O-])cn3)o2)no1 | -11.3 | 29.1 µM [rising, single point] | –
